Results are given in words; binding and its absence hold for the method and conditions named. A result given as binding can be weak or reduced; the word gives no strength. For part of these data: In cells and extracts the contact can be indirect. For part of these data: Tags and fused reporters may be left off the sequences shown. Each block holds one molecule with its values, some of them ahead of it.
Experiments:
[1] = target: T1, GFP-MIG-5b(311-666) (C. elegans) (UniProt Q22227); assay: co-IP; COS-7 cells cotransfected; lysed in RIPA buffer; IP with anti-GFP antibody on Dynabeads protein G, 2 h at 4°C; immunoblot with anti-FLAG
T1 sequence: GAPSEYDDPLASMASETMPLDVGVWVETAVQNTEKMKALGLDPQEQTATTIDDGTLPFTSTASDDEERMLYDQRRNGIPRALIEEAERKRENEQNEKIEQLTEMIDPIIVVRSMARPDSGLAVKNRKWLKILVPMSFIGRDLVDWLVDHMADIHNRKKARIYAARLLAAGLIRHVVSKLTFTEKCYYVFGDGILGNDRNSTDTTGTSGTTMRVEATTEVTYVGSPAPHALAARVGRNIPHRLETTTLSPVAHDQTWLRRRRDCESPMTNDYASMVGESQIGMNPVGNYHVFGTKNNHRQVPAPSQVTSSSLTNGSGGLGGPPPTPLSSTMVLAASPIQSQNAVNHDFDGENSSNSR

[2] = target: T2, GFP-MIG-5b (MIG-5 isoform b, full length) (C. elegans) (UniProt Q22227); assay: as above
T2 sequence: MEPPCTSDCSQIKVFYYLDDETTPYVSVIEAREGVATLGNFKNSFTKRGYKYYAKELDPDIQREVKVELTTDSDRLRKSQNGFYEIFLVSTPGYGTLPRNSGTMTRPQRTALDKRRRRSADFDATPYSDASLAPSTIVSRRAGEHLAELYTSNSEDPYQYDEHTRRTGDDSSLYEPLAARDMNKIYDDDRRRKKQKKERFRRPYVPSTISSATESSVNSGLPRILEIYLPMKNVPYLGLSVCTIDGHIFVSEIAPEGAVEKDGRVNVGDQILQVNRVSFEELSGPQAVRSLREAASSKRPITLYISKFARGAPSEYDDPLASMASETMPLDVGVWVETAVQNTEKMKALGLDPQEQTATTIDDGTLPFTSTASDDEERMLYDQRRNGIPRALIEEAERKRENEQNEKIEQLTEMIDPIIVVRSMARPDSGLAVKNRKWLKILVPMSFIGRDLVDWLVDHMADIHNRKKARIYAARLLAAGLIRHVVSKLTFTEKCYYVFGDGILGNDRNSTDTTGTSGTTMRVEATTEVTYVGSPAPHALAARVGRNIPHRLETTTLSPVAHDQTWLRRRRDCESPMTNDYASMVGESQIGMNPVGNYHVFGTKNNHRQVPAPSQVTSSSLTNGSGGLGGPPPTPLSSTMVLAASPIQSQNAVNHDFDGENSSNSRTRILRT

[3] = target: kinase-negative CDK-14(K89R), yeast two-hybrid bait (C. elegans); assay: two-hybrid; yeast two-hybrid screen with kinase-negative CDK-14(K89R) as bait

binding [1]: binds
binding [2]: binds
Molecule: 3xFLAG-CDK-14 (C. elegans) (enzyme)

binding [3]: binds
B1: MIG-5 isoform b fragment (311-666 aa), yeast two-hybrid prey (domain or fragment, UniProt Q22227 311-666)
chain: T1 sequence
